How the values were obtained:
[1] = tested on: blood from diabetic patients before and after PJ supplementation; assay: Effect of diabetic patients' blood before and after 1 week of pomegranate juice (PJ) on TCL oxidation; parameters: species or system human; details: for TL-OOH vs. TL total amount / TL-epoxy vs. TL total amount: diabetic patients; for 4β oxysterol vs. cholesterol total amount / 7-keto oxysterol vs. cholesterol total amount / 7α oxysterol vs. cholesterol total amount / 7β oxysterol vs. cholesterol total amount / 25-OH oxysterol vs. cholesterol total amount / α-epoxy oxysterol vs. cholesterol total amount / β-epoxy oxysterol vs. cholesterol total amount: blood cells of diabetic patients
[2] = tested on: blood from Parkinson's patients; assay: Effect of Parkinson patients' blood on TCL oxidation; parameters: species or system human

CCCCCC=CCC=CCCCCCCCC(=O)NC(Cc1ccc(O)cc1)C(=O)OC1CCC2(C)C(=CCC3C2CCC2(C)C(C(C)CCCC(C)C)CCC32)C1 (stereo not shown) [TCL, N-linoleyl tyrosine cholesteryl ester]
TL-OOH vs. TL total amount ([1]; Cells, After PJ (1 week)): 0.313 µM
TL-epoxy vs. TL total amount ([1]; Cells, After PJ (1 week)): 0.888 µM
TL-OOH vs. TL total amount ([1]; Cells, Before PJ): 1.790 µM
TL-epoxy vs. TL total amount ([1]; Cells, Before PJ): 23.70 µM
TL-OOH vs. TL total amount ([1]; Serum, After PJ (1 week)): 0.781 µM
TL-epoxy vs. TL total amount ([1]; Serum, After PJ (1 week)): 0.521 µM
TL-OOH vs. TL total amount ([1]; Serum, Before PJ): 18.819 µM
TL-epoxy vs. TL total amount ([1]; Serum, Before PJ): 9.112 µM
4β oxysterol vs. cholesterol total amount ([1]; After PJ): 0 µM
7-keto oxysterol vs. cholesterol total amount ([1]; After PJ): 0.477 µM
7α oxysterol vs. cholesterol total amount ([1]; After PJ): 0.007 µM
7β oxysterol vs. cholesterol total amount ([1]; After PJ): 0.017 µM
25-OH oxysterol vs. cholesterol total amount ([1]; After PJ): 0 µM
α-epoxy oxysterol vs. cholesterol total amount ([1]; After PJ): 0.076 µM
β-epoxy oxysterol vs. cholesterol total amount ([1]; After PJ): 0.106 µM
4β oxysterol vs. cholesterol total amount ([1]; Before PJ): 0.001 µM
7-keto oxysterol vs. cholesterol total amount ([1]; Before PJ): 1.235 µM
7α oxysterol vs. cholesterol total amount ([1]; Before PJ): 0.007 µM
7β oxysterol vs. cholesterol total amount ([1]; Before PJ): 0.234 µM
25-OH oxysterol vs. cholesterol total amount ([1]; Before PJ): 0 µM
α-epoxy oxysterol vs. cholesterol total amount ([1]; Before PJ): 0.284 µM
β-epoxy oxysterol vs. cholesterol total amount ([1]; Before PJ): 0.140 µM
total amount of oxysterol ([2]; Parkinson's patients vs. healthy): moderate increase
hydroperoxide (TL-OOH) ([2]; cells and serum, Parkinson's patients): not present at all
total amount of Ox-TL ([2]; cells and serum, Parkinson's patients vs. healthy): relatively moderate increase
